Experimental data: paper PMC12706078
No constants are given. Whether binding was seen depends on the method and setting. Binding seen in cells or lysates may run through a third protein. Some entries that bind do so weakly or less than the wild type. Sequences can lack the tags named with a protein.

Chains of the proteins cited; added tags and fusions are not shown. Lines headed by an entry give the natural chain unless they say otherwise; changes in a name come on top. A line that says so, or that is headed by a name, gives the form on record, which may keep a tag or linker. Residues count along the entry.
Flag-tagged PD-L1 (PD-L1-Flag) (Q9NZQ7, residues 19-290): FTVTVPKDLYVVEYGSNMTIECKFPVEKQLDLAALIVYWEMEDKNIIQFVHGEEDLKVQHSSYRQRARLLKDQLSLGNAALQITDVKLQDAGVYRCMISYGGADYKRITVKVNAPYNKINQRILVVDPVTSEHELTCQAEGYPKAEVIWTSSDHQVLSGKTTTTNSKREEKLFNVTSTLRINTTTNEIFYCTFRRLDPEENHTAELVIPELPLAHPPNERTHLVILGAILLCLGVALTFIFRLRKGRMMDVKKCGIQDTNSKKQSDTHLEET
PD-L1-Flag C250/272A double mutant (Q9NZQ7-1, form named): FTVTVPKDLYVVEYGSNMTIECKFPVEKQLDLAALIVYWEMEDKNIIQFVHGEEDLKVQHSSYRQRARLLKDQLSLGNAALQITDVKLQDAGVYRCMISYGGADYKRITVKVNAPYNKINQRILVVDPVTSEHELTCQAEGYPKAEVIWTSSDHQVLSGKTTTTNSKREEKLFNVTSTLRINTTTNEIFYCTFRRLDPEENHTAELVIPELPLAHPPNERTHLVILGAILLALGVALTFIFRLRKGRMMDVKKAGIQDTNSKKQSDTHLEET
PD-L1-Flag C250A mutant (Q9NZQ7-1, form named): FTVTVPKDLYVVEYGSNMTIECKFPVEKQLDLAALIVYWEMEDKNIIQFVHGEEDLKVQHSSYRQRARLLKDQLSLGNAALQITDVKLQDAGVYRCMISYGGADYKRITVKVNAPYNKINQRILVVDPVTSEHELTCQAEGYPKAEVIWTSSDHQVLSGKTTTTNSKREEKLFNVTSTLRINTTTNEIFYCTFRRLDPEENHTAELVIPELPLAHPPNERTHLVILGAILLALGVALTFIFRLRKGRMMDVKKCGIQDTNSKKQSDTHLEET
PD-L1-Flag C272A mutant (Q9NZQ7-1, form named): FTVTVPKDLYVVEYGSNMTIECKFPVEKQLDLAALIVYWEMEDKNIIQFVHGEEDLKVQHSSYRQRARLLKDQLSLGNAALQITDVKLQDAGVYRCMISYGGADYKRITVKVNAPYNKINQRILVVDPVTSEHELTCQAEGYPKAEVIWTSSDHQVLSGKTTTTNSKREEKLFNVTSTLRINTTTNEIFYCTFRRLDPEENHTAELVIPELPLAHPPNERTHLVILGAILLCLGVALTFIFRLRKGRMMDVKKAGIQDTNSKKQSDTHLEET

Tests used:
[1] = molecular target: T1, biotinylated-tagged UBL3 (Biotin-UBL3) (UniProt O95164); assay: co-IP; UBL3 modification assay: lysates of co-transfected MDA-MB-231 cells (lysis without DTT), Biotin-UBL3 captured on NeutrAvidin agarose/streptavidin beads 18 h at 4 °C, eluted without 2-mercaptoethanol (βME-, non-reducing), anti-Flag blot, signals above 70 kDa; also done after statin treatment of the cells (modification reduced, Supplementary Fig. S5)
T1 sequence: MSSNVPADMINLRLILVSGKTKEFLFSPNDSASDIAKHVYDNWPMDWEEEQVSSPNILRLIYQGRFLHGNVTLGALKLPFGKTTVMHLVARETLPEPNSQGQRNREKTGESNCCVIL

[2] = molecular target: T1, biotinylated-tagged UBL3 (Biotin-UBL3); assay: condition: only immunoprecipitates treated with 2-mercaptoethanol (βME+); co-IP; same precipitates as in a1, but the eluate was treated with 2-mercaptoethanol for 5 min at 95 °C (βME+, reducing) before the anti-Flag blot

binding [1]	binding [2]	Substance
binds	no binding	Flag-tagged PD-L1 (PD-L1-Flag) (from UniProt Q9NZQ7-1 19-290)
binds	–	PD-L1-Flag C250/272A double mutant (from UniProt Q9NZQ7-1 19-290)
binds	–	PD-L1-Flag C250A mutant (from UniProt Q9NZQ7-1 19-290)
binds	–	PD-L1-Flag C272A mutant (from UniProt Q9NZQ7-1 19-290)
